Experimental data from patent publication EP2652508B1.
These are yes or no findings as the source states them, for the method shown. For some assays here: Binding seen in cells or lysates may run through a third protein. Some entries that bind do so weakly or less than the wild type.

The chains behind the UniProt entries cited, without tags or fusion partners. Where a name states a change or a piece, a line headed by the entry shows the natural chain unless it says otherwise. Residues count along the entry.
UniProt P32302: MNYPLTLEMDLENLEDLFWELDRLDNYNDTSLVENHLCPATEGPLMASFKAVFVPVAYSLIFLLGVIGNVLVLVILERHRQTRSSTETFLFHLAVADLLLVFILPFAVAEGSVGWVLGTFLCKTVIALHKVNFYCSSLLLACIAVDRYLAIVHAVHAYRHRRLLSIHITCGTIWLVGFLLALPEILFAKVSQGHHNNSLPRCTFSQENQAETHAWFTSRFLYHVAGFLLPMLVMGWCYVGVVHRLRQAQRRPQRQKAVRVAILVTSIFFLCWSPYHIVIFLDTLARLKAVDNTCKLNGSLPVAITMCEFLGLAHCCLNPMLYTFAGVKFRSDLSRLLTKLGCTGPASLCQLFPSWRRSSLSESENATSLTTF
UniProt P61072: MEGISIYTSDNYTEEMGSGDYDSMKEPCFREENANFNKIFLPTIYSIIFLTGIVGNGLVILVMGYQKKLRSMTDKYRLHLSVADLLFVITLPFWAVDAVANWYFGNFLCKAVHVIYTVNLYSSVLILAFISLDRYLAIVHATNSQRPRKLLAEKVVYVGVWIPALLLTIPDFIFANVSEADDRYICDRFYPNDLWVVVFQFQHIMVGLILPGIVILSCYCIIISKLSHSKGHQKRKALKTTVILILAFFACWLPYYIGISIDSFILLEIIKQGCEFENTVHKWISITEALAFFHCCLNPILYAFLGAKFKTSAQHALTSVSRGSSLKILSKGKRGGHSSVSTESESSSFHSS
UniProt Q14344: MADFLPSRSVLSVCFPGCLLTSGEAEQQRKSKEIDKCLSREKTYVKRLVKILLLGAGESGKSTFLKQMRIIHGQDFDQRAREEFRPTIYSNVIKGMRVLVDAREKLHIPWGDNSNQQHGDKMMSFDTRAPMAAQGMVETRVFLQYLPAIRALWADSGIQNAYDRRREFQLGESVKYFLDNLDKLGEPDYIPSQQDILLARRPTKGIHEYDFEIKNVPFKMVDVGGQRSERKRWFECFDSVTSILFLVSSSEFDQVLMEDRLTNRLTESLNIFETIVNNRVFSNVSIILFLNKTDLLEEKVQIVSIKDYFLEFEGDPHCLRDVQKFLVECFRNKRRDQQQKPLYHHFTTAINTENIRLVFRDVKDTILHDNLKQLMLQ
UniProt P04899, residues 2-355: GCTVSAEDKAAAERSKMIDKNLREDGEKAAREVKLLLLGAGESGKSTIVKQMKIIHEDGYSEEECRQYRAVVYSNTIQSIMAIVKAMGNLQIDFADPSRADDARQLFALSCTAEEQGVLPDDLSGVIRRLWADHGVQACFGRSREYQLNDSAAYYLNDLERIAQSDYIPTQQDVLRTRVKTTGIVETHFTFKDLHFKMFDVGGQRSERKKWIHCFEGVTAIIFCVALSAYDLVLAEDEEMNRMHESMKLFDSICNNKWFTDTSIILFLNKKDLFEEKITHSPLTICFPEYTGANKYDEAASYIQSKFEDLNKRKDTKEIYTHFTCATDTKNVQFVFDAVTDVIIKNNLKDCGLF

Legend:
CXCR5 (human) [1] = biological target: CXCR5 (human) (UniProt P32302); assay: co-immunoprecipitation from prostate cell lysates: IP of Gα13, immunoblot for CXCR5
[2] = biological target: CXCR4 (Pan troglodytes (Chimpanzee)) (UniProt P61072); assay: co-immunoprecipitation, legend of FIGS. 12A-C
CXCR5 (human) [3] = biological target: CXCR5 (human) (UniProt P32302); assay: co-immunoprecipitation, legend of FIGS. 12A-C
[4] = biological target: CXCR4 (Pan troglodytes (Chimpanzee)) (UniProt P61072); assay: co-immunoprecipitation from prostate cell lysates: IP of Gα13, immunoblot for CXCR4
CXCR5 (human) [5] = biological target: CXCR5 (human) (UniProt P32302); assay: co-immunoprecipitation from prostate cell lysates: IP of Gαi2, immunoblot for CXCR5
CXCR5 (human) [6] = biological target: CXCR5 (human) (UniProt P32302); assay: co-immunoprecipitation, legend of FIGS. 11A-B
CXCR5 (human) [7] = biological target: CXCR5 (human) (UniProt P32302); assay: imaging flow cytometry (Amnis Imagestream) of LNCaP and PC3 cells stained with anti-CXCR5 and anti-CXCL13 antibodies; signal correlation between CXCR5 and CXCL13
CXCR5 (human) [8] = biological target: CXCR5 (human) (UniProt P32302); assay: imaging flow cytometry, legend of FIGS. 22A-B

## Gα13 (from UniProt Q14344 1-377)
CXCR5 (human) [1]
  binding: binds
[2]
  binding: binds
CXCR5 (human) [3]
  binding: binds
[4]
  binding: binds

## Gαi2 (from UniProt P04899 2-355)
CXCR5 (human) [5]
  binding: binds
CXCR5 (human) [6]
  binding: binds

B1: CXCL13 (ligand)
chain: VLEVYYTSLRCRCVQESSVFIPRRFIDRIQILPRGNGCPRKEIIVWKKNKSIVCVDPQAEWIQRMMEVLRKRSSSTLPVPVFKRKIP
CXCR5 (human) [7]
  binding: binds
CXCR5 (human) [8]
  binding: binds
